Measured values reported in the M2OR odorant receptor database.
Only a part is listed here, and it is no random draw. The calls were merged from several studies; some rest on single wells. This is one part of the list.

What was measured:
Conditions in all cases: stereoisomer not certain
[1] = target: T1, OR8D1 (Homo sapiens) (UniProt Q8WZ84)
T1 sequence (whole entry): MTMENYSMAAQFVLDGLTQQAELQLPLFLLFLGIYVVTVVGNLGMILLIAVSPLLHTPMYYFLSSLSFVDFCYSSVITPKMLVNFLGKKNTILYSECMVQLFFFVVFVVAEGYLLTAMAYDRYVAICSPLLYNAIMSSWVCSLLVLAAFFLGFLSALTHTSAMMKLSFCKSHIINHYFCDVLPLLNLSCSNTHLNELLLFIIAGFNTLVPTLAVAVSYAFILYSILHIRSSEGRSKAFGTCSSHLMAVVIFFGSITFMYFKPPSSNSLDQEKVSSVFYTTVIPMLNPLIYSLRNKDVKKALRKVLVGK
Summary of the method: (§1)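 Each receptor–molecule pair is labelled responsive or non-responsive (inactive) according to whether the original authors judged the measured signal statistically different from baseline. The data were taken from the main text and supplementary material of published papers and checked for typos and inconsistencies. Assay methods differed by source, with transient luciferase assays in mammalian cell lines being common.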

[2] = target: T2, OR8D2 (Homo sapiens) (UniProt Q9GZM6)
T2 sequence (whole entry): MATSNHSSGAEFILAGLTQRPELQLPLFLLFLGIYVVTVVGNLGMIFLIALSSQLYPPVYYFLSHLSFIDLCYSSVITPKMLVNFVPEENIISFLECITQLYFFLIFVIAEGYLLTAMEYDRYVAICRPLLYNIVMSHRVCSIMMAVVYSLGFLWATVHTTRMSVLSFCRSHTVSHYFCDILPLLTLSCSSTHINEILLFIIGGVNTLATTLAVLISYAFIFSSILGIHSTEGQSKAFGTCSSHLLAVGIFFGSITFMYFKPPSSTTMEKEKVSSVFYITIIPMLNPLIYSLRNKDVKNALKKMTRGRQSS
Summary of the method: as §1

[3] = system: T3, OR8D4
T3 sequence (whole entry): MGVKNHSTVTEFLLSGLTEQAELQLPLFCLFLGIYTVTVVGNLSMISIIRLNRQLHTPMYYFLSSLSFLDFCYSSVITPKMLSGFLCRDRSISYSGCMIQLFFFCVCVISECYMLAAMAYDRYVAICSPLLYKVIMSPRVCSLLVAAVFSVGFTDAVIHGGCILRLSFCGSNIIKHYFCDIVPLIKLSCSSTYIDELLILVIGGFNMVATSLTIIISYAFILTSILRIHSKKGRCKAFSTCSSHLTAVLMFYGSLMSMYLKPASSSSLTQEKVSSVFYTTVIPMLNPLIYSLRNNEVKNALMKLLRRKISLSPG
Summary of the method: as §1

[4] = target: T4, OR8G1 (Homo sapiens) (UniProt Q15617)
T4 sequence (whole entry): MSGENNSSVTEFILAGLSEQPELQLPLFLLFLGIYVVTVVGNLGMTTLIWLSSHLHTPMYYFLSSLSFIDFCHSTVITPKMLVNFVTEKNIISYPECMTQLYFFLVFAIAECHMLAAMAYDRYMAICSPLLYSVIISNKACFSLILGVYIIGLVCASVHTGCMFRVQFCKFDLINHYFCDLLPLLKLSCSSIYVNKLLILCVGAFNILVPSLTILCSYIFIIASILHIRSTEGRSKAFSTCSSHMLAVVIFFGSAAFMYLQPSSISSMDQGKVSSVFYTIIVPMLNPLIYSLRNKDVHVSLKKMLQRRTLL
Summary of the method: as §1

[5] = target: T5, OR8G5 (Homo sapiens) (UniProt Q8NG78)
T5 sequence (whole entry): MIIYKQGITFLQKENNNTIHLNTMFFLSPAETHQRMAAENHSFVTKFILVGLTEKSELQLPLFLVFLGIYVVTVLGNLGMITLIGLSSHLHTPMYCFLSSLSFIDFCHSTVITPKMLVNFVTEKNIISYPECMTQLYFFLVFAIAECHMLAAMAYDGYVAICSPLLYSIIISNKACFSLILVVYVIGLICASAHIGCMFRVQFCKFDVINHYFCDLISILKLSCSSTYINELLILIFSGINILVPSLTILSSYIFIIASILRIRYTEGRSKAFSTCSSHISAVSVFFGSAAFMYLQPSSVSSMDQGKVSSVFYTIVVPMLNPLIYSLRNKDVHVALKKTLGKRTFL
Summary of the method: as §1

[6] = system: T6, OR8G5
T6 sequence (whole entry): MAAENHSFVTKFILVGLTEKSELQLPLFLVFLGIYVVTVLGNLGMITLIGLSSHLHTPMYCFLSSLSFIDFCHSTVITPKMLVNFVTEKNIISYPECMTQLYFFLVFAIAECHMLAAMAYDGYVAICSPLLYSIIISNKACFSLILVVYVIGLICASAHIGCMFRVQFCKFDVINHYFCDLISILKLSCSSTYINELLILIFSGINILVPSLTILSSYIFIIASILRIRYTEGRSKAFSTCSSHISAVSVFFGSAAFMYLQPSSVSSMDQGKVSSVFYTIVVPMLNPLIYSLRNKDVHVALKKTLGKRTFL
Summary of the method: as §1

[7] = target: T7, OR8H1 (Homo sapiens) (UniProt Q8NGG4)
T7 sequence (whole entry): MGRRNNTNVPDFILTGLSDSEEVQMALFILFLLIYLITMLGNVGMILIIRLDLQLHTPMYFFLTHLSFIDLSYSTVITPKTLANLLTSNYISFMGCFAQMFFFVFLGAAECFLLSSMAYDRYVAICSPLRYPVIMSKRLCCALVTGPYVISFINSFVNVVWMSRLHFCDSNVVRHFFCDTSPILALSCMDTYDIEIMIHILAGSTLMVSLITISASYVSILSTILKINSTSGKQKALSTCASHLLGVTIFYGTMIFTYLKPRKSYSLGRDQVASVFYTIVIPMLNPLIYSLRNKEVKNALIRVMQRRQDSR
Summary of the method: as §1

[8] = system: T8, OR8H2
T8 sequence (whole entry): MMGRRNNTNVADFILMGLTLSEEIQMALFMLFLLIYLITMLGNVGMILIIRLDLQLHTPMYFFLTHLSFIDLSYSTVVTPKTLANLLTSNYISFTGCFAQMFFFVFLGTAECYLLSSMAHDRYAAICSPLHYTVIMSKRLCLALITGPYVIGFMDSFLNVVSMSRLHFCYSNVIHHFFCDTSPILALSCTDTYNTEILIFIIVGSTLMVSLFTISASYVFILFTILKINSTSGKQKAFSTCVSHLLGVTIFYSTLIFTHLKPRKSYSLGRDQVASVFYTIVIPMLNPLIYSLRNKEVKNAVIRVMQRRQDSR
Summary of the method: as §1

[9] = target: OR8D4 (Homo sapiens) (UniProt Q8NGM9)
Summary of the method: as §1

[10] = target: OR8H2 (Homo sapiens) (UniProt Q8N162)
Summary of the method: as §1

Measured: odorant receptor agonist call

O=C1CCCCCCCCCCCCCCO1
inactive: [1] | [2] | [3] | [4] | [5] | [6] | [7] | [8]

CCCCO
inactive: [1] | [2] | [3] | [4] | [5] | [6] | [7] | [8]

CCCCCOC(C)=O
active: [3]
inactive: [1] | [2] | [4] | [5] | [6] | [7] | [8]

O=C1CCCCCCCCCCCC(=O)OCCO1
inactive: [1] | [2] | [3] | [4] | [5] | [6] | [7] | [8]

CC(=O)C(C)=O
inactive: [1] | [2] | [3] | [4] | [5] | [6] | [7] | [8]

C=CCSCC=C
inactive: [1] | [2] | [3] | [4] | [5] | [6] | [7] | [8]

CC12C=CCC1C1CCC3=CC(=O)CCC3(C)C1CC2 (stereo not given)
inactive: [1] | [2] | [3] | [4] | [5] | [6] | [7] | [8]

CCC1(O)C2(C)CCC(C2)C1(C)C (stereo not given)
inactive: [1] | [2] | [3] | [4] | [5] | [6] | [7] | [8]

C=CCc1ccc(OC)c(OC)c1
inactive: [1] | [2] | [3] | [4] | [5] | [6] | [7] | [8]

CCCCCCCCCCC=O
inactive: [1] | [2] | [3] | [4] | [5] | [6] | [7] | [8]

CC1=CCC(C(C)(C)O)CC1 (stereo not given)
inactive: [1] | [2] | [3] | [4] | [5] | [6] | [7] | [8]

CC(C)C(=O)O
active: [8]
inactive: [1] | [2] | [3] | [4] | [5] | [6] | [7]

CC(=O)OC(C)(C)C1CC=C(C)CC1 (stereo not given)
inactive: [1] | [2] | [3] | [4] | [5] | [6] | [7] | [8]

Two entries drawn at random from the list so far, as already listed:
CC(C)C(=O)O
active: [8]
inactive: [1] | [2] | [3] | [4] | [5] | [6] | [7]

CCCCCCCCCCC=O
inactive: [1] | [2] | [3] | [4] | [5] | [6] | [7] | [8]

The listing continues.

CC(=O)OCC=C(C)CCC=C(C)C
inactive: [1] | [2] | [3] | [4] | [5] | [6] | [7] | [8]

CC12CCC(C1)C(C)(C)C2=O (stereo not given)
inactive: [1] | [2] | [3] | [4] | [5] | [6] | [7] | [8]

CC12C=CCC1C1CCC3CC(=O)CCC3(C)C1CC2 (stereo not given)
active: [8]
inactive: [9] | [3] | [4] | [5] | [6] | [7] | [10]

CC(C)C=O
inactive: [1] | [2] | [3] | [4] | [5] | [6] | [7] | [8]

CC(C)CC(=O)O
inactive: [1] | [2] | [3] | [4] | [5] | [6] | [7] | [8]

CCCCCCCCOC(C)=O
inactive: [1] | [2] | [3] | [4] | [5] | [6] | [7] | [8]

O=C1CCCCC1
inactive: [1] | [2] | [3] | [4] | [5] | [6] | [7] | [8]

CC(C)=CCCC(C)=CC=O
inactive: [1] | [2] | [3] | [4] | [5] | [6] | [7] | [8]

CC1CCC(C(C)C)C(O)C1 (stereo not given)
active: [6]
inactive: [1] | [2] | [3] | [4] | [5] | [7] | [8]

COc1cc(C=O)ccc1O
inactive: [1] | [2] | [3] | [4] | [5] | [6] | [7] | [8]

O=CCc1ccccc1
inactive: [1] | [2] | [3] | [4] | [5] | [6] | [7] | [8]

CC(=O)OC1CC2CCC1(C)C2(C)C (stereo not given)
inactive: [1] | [2] | [3] | [4] | [5] | [6] | [7] | [8]
